Measurements published in PubChem BioAssay AID256 (DTP/NCI, 2004).
The list does not hold the whole screen: its compounds were picked by chemical class. Other doses and runs of a compound may be missing. T/C is the treated group as % of the vehicle group. Some entries give survivors of the animals treated and no T/C: the source files T/C as zero there, which appears to mark a toxic dose or a test without result, not a measured value. Counts of survivors are from the toxicity check (mostly the fifth day) where no day follows; animals may have died later. Schedule codes are those of the source, read here as Q, the interval in days (D) or hours (H), X, the number of doses. Some entries were tested several times; their values stand side by side, smallest first. Where survival is the endpoint, this PubChem deposit counts one and a half times the control or more as active, and values a quarter to a half above the control carry no call in these data; other NCI protocols may use other cut-offs. Some T/C values are marked as having no survivor count here; that says nothing about deaths at the dose. Some T/C values are followed by the survivors on the day toxicity was checked, most often the fifth; without a count or a note in brackets, all were alive then.

System: CD2F1 mice, L1210 leukemia ip, survival T/C
Test: NCI In Vivo Anticancer Drug Screen. Data for tumor model L1210 Leukemia (intraperitoneal) in CD2F1 (CDF1) mice
Details: higher T/C = longer survival
In short: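 Mice carrying a transplanted tumor received test compound or vehicle alone. The value is the measurement in the treated group divided by that in the vehicle-treated control group.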

[1] = T/C endpoint: mean survival time, dose: 31.3 mg/kg/injection, schedule: Q01DX001 (ip), vehicle: DMSO
[2] = T/C endpoint: mean survival time, dose: 62.5 mg/kg/injection, schedule: Q01DX001 (ip), vehicle: DMSO
[3] = T/C endpoint: mean survival time, dose: 125.0 mg/kg/injection, schedule: Q01DX001 (ip), vehicle: DMSO
[4] = T/C endpoint: mean survival time, dose: 250.0 mg/kg/injection, schedule: Q01DX001 (ip), vehicle: DMSO
[5] = T/C endpoint: mean survival time, dose: 500.0 mg/kg/injection, schedule: Q01DX001 (ip), vehicle: DMSO
[6] = T/C endpoint: mean survival time, dose: 50.0 mg/kg/injection, schedule: Q04DX003 (ip), vehicle: saline
[7] = T/C endpoint: mean survival time, dose: 100.0 mg/kg/injection, schedule: Q04DX003 (ip), vehicle: saline with Tween-80

NP(=O)(OCCCCO)N(CCCl)CCCl (configuration not stated)
T/C (T/C endpoint: mean survival time, dose: 12.5 mg/kg/injection, schedule: Q01DX009 (ip), vehicle: water): 91 % of control
T/C (T/C endpoint: mean survival time, dose: 25.0 mg/kg/injection, schedule: Q01DX009 (ip), vehicle: water): 91 % of control
T/C [1]: 100 % of control
T/C (T/C endpoint: mean survival time, dose: 50.0 mg/kg/injection, schedule: Q01DX009 (ip), vehicle: water): 86 % of control
T/C [2]: 106 % of control
T/C (T/C endpoint: mean survival time, dose: 100.0 mg/kg/injection, schedule: Q01DX009 (ip), vehicle: water): 92 % of control
T/C [3]: 102 % of control
T/C (T/C endpoint: mean survival time, dose: 200.0 mg/kg/injection, schedule: Q01DX009 (ip), vehicle: water): 96 % of control
T/C [4]: 102 % of control
T/C [5]: 100 % of control

CC[P+]1(c2ccccc2)CCC(C)c2ccccc21.F[P-](F)(F)(F)(F)F (configuration not stated)
survivor count (T/C endpoint: mean survival time, dose: 100.0 mg/kg/injection, schedule: Q04DX002 (ip), vehicle: saline with Tween-80): 0 of 3
survivor count (T/C endpoint: mean survival time, dose: 200.0 mg/kg/injection, schedule: Q04DX002 (ip), vehicle: saline with Tween-80): 0 of 3
survivor count (T/C endpoint: mean survival time, dose: 400.0 mg/kg/injection, schedule: Q04DX002 (ip), vehicle: saline with Tween-80): 0 of 3

CP(I)(Oc1ccccc1)(Oc1ccccc1)Oc1ccccc1
T/C (T/C endpoint: mean survival time, dose: 100.0 mg/kg/injection, schedule: Q04DX002 (sc), vehicle: saline with Tween-80): 96 % of control [survivor count not shown]
T/C (T/C endpoint: mean survival time, dose: 200.0 mg/kg/injection, schedule: Q04DX002 (sc), vehicle: saline with Tween-80): 90 % of control [survivor count not shown]
T/C (T/C endpoint: mean survival time, dose: 400.0 mg/kg/injection, schedule: Q04DX002 (sc), vehicle: saline with Tween-80): 104 % of control [survivor count not shown]

CC(C)(C)C1COP(C)(=O)OC1 (configuration not stated)
T/C (T/C endpoint: mean survival time, dose: 3.13 mg/kg/injection, schedule: Q04DX002 (ip), vehicle: saline with Tween-80): 100 % of control [survivor count not shown]
T/C (T/C endpoint: mean survival time, dose: 6.25 mg/kg/injection, schedule: Q04DX002 (ip), vehicle: saline with Tween-80): 103 % of control [survivor count not shown]
T/C (T/C endpoint: mean survival time, dose: 12.5 mg/kg/injection, schedule: Q04DX002 (ip), vehicle: saline with Tween-80): 96 % of control [survivor count not shown]

C[As](C)Sc1ncnc2nc[nH]c12
T/C (T/C endpoint: mean survival time, dose: 3.13 mg/kg/injection, schedule: Q01DX005 (ip), vehicle: distilled water + Tween-80): 107 % of control
T/C (T/C endpoint: mean survival time, dose: 6.25 mg/kg/injection, schedule: Q01DX005 (ip), vehicle: distilled water + Tween-80): 110 and 114 % of control
T/C (T/C endpoint: mean survival time, dose: 12.5 mg/kg/injection, schedule: Q01DX005 (ip), vehicle: distilled water + Tween-80): 107 and 114 % of control
T/C (T/C endpoint: mean survival time, dose: 25.0 mg/kg/injection, schedule: Q01DX005 (ip), vehicle: distilled water + Tween-80): 86 and 114 % of control
survivor count (T/C endpoint: mean survival time, dose: 50.0 mg/kg/injection, schedule: Q01DX005 (ip), vehicle: distilled water + Tween-80): 0 of 6 and 1 of 6
survivor count (T/C endpoint: mean survival time, dose: 100.0 mg/kg/injection, schedule: Q01DX005 (ip), vehicle: distilled water + Tween-80): 0 of 6

CN(CCCl)N=O
T/C (T/C endpoint: mean survival time, dose: 75.0 mg/kg/injection, schedule: Q01DX001 (ip), vehicle: saline): 100 % of control
T/C (T/C endpoint: mean survival time, dose: 150.0 mg/kg/injection, schedule: Q01DX001 (ip), vehicle: saline): 101 % of control
T/C (T/C endpoint: mean survival time, dose: 300.0 mg/kg/injection, schedule: Q01DX001 (ip), vehicle: saline): 105 % of control

CC[C@H](C)[C@@H]1NC(=O)/C(=C(\C)O)C1=O
T/C (T/C endpoint: mean survival time, dose: 12.5 mg/kg/injection, schedule: Q01DX009 (ip), vehicle: saline with Tween-80): 96 % of control
T/C (T/C endpoint: mean survival time, dose: 25.0 mg/kg/injection, schedule: Q01DX009 (ip), vehicle: saline with Tween-80): 101 % of control
T/C (T/C endpoint: mean survival time, dose: 25.0 mg/kg/injection, schedule: Q04DX003 (ip), vehicle: saline): 97 % of control
T/C (T/C endpoint: mean survival time, dose: 50.0 mg/kg/injection, schedule: Q01DX009 (ip), vehicle: saline with Tween-80): 96 % of control
T/C [6]: 101 % of control
survivor count (T/C endpoint: mean survival time, dose: 100.0 mg/kg/injection, schedule: Q04DX003 (ip), vehicle: saline): 3 of 6

O=P1(Cl)OC(c2ccccc2)=CCN1CCCl (configuration not stated)
T/C (T/C endpoint: median survival time, dose: 31.25 mg/kg/injection, schedule: Q01DX001 (ip), vehicle: distilled water + Tween-80): 116 % of control
T/C (T/C endpoint: median survival time, dose: 62.5 mg/kg/injection, schedule: Q01DX001 (ip), vehicle: distilled water + Tween-80): 101 % of control
T/C (T/C endpoint: median survival time, dose: 125.0 mg/kg/injection, schedule: Q01DX001 (ip), vehicle: distilled water + Tween-80): 101 % of control
T/C (T/C endpoint: median survival time, dose: 250.0 mg/kg/injection, schedule: Q01DX001 (ip), vehicle: distilled water + Tween-80): 104 % of control [5 of 6 alive]
survivor count (T/C endpoint: median survival time, dose: 500.0 mg/kg/injection, schedule: Q01DX001 (ip), vehicle: distilled water + Tween-80): 0 of 6

NC1CCCCC1.O=P(O)(N(CCCl)CCCl)N1CCOCC1
T/C (T/C endpoint: mean survival time, dose: 62.5 mg/kg/injection, schedule: Q01DX010 (ip), vehicle: saline): 104 % of control
T/C (T/C endpoint: mean survival time, dose: 125.0 mg/kg/injection, schedule: Q01DX010 (ip), vehicle: saline): 127 % of control
T/C (T/C endpoint: mean survival time, dose: 250.0 mg/kg/injection, schedule: Q01DX010 (ip), vehicle: saline): 148 % of control
T/C (T/C endpoint: mean survival time, dose: 500.0 mg/kg/injection, schedule: Q01DX010 (ip), vehicle: saline): 119 % of control

CCCCCCCCCCCCOP(=O)(O)CCC
T/C [7]: 94 % of control [survivor count not shown]

CCN(CCCl)Cc1ccccc1
T/C [6]: 91 % of control

CC(O)C(C)COP(N)(=O)N(CCCl)CCCl (configuration not stated)
T/C (T/C endpoint: mean survival time, dose: 15.62 mg/kg/injection, schedule: Q01DX001 (ip), vehicle: DMSO): 98 % of control
T/C [1]: 97 % of control
T/C [2]: 98 % of control
T/C [3]: 106 % of control
T/C [4]: 106 % of control
T/C [5]: 106 % of control

CC1CN1P(=O)(Nc1ccccn1)N1CC1C (configuration not stated)
T/C (T/C endpoint: mean survival time, dose: 16.5 mg/kg/injection, schedule: Q04DX003 (ip), vehicle: saline): 104 % of control
T/C (T/C endpoint: mean survival time, dose: 29.0 mg/kg/injection, schedule: Q01DX009 (ip), vehicle: carboxymethylcellulose (CMC)): 136 % of control
T/C (T/C endpoint: mean survival time, dose: 33.0 mg/kg/injection, schedule: Q04DX003 (ip), vehicle: saline): 104 % of control
T/C (T/C endpoint: mean survival time, dose: 44.0 mg/kg/injection, schedule: Q01DX009 (ip), vehicle: carboxymethylcellulose (CMC)): 128 % of control
T/C (T/C endpoint: mean survival time, dose: 66.0 mg/kg/injection, schedule: Q01DX009 (ip), vehicle: carboxymethylcellulose (CMC)): 143 % of control
T/C (T/C endpoint: mean survival time, dose: 66.0 mg/kg/injection, schedule: Q04DX003 (ip), vehicle: saline): 117 % of control
T/C (T/C endpoint: mean survival time, dose: 100.0 mg/kg/injection, schedule: Q01DX009 (ip), vehicle: carboxymethylcellulose (CMC)): 103 % of control
T/C [7]: 123 and 131 % of control
T/C (T/C endpoint: mean survival time, dose: 200.0 mg/kg/injection, schedule: Q04DX003 (ip), vehicle: saline with Tween-80): 89 [4 of 6 alive] and 109 % of control
T/C (T/C endpoint: mean survival time, dose: 400.0 mg/kg/injection, schedule: Q04DX003 (ip), vehicle: saline with Tween-80): 89 and 125 % of control

NP1(=O)C=CN(C2OC(CO)C(O)C2O)C(=O)N1 (configuration not stated)
T/C (T/C endpoint: median survival time, dose: 2.5 mg/kg/injection, schedule: Q01DX005 (ip), vehicle: water): 100 % of control
T/C (T/C endpoint: median survival time, dose: 5.0 mg/kg/injection, schedule: Q01DX005 (ip), vehicle: water): 94 % of control
T/C (T/C endpoint: median survival time, dose: 10.0 mg/kg/injection, schedule: Q01DX005 (ip), vehicle: water): 92 % of control
T/C (T/C endpoint: median survival time, dose: 20.0 mg/kg/injection, schedule: Q01DX005 (ip), vehicle: water): 97 % of control
T/C (T/C endpoint: median survival time, dose: 40.0 mg/kg/injection, schedule: Q01DX005 (ip), vehicle: water): 99 % of control

CC[O+](CC)CC
T/C (T/C endpoint: mean survival time, dose: 6.25 mg/kg/injection, schedule: Q04DX002 (ip), vehicle: saline): 96 % of control
T/C (T/C endpoint: mean survival time, dose: 12.5 mg/kg/injection, schedule: Q04DX002 (ip), vehicle: saline): 104 % of control
T/C (T/C endpoint: mean survival time, dose: 25.0 mg/kg/injection, schedule: Q04DX002 (ip), vehicle: saline): 96 % of control

CCC(C)NCCCl (configuration not stated)
T/C (T/C endpoint: mean survival time, dose: 100.0 mg/kg/injection, schedule: Q01DX009 (ip), vehicle: saline): 107 % of control
T/C (T/C endpoint: mean survival time, dose: 200.0 mg/kg/injection, schedule: Q01DX009 (ip), vehicle: saline): 111 % of control [2 of 3 alive]
survivor count (T/C endpoint: mean survival time, dose: 400.0 mg/kg/injection, schedule: Q01DX009 (ip), vehicle: saline): 0 of 3
